This is a noisy data set.
Test system: Sindbis virus TE/5'2J-GFP
Assay: percent infected (GFP+ in RFP+ ISG-expressing cells); higher = more infection (less antiviral activity)
Details: experiment: primary screen (single well)

| Sequence | percent infected (BHK/HA-Zeo (control)) | percent infected (BHK/NZAP-Zeo (ZAP)) |
| --- | --- | --- |
| MKMRFLGLVVCLVLWTLHSEGSGGKLTAVDPETNMNVSEIISYWGFPSEEYLVETEDGYILCLNRIPHGRKNHSDKGPKPVVFLQHGLLADSSNWVTNLANSSLGFILADAGFDVWMGNSRGNTWSRKHKTLSVSQDEFWAFSYDEMAKYDLPASINFILNKTGQEQVYYVGHSQGTTIGFIAFSQIPELAKRIKMFFALGPVASVAFCTSPMAKLGRLPDHLIKDLFGDKEFLPQSAFLKWLGTHVCTHVILKELCGNLCFLLCGFNERNLNMSRVDVYTTHSPAGTSVQNMLHWSQAVKFQKFQAFDWGSSAKNYFHYNQSYPPTYNVKDMLVPTAVWSGGHDWLADVYDVNILLTQITNLVFHESIPEWEHLDFIWGLDAPWRLYNKIINLMRKYQ [LIPA] | 98.8% | 97.1% |
| MKPSGEDQAALAAGPWEECFQAAVQLALRAGQIIRKALTEEKRVSTKTSAADLVTETDHLVEDLIISELRERFPSHRFIAEEAAASGAKCVLTHSPTWIIDPIDGTCNFVHRFPTVAVSIGFAVRQELEFGVIYHCTEERLYTGRRGRGAFCNGQRLRVSGETDLSKALVLTEIGPKRDPATLKLFLSNMERLLHAKAHGVRVIGSSTLALCHLASGAADAYYQFGLHCWDLAAATVIIREAGGIVIDTSGGPLDLMACRVVAASTREMAMLIAQALQTINYGRDDEK [IMPA2] | 97.9% | 91.1% |
| MKRRTDPECTAPIKKQKKRVAELALSLSSTSDDEPPSSVSHGAKASTTSLSGSDSETEGKQHSSDSFDDAFKADSLVEGTSSRYSMYNSVSQKLMAKMGFREGEGLGKYSQGRKDIVEASSQKGRRGLGLTLRGFDQELNVDWRDEPEPSACEQVSWFPECTTEIPDTQEMSDWMVVGKRKMIIEDETEFCGEELLHSVLQCKSVFDVLDGEEMRRARTRANPYEMIRGVFFLNRAAMKMANMDFVFDRMFTNPRDSYGKPLVKDREAELLYFADVCAGPGGFSEYVLWRKKWHAKGFGMTLKGPNDFKLEDFYSASSELFEPYYGEGGIDGDGDITRPENISAFRNFVLDNTDRKGVHFLMADGGFSVEGQENLQEILSKQLLLCQFLMALSIVRTGGHFICKTFDLFTPFSVGLVYLLYCCFERVCLFKPITSRPANSERYVVCKGLKVGIDDVRDYLFAVNIKLNQLRNTDSDVNLVVPLEVIKGDHEFTDYMIRSNESHCSLQIKALAKIHAFVQDTTLSEPRQAEIRKECLRLWGIPDQARVAPSSSDPKSKFFELIQGTEIDIFSYKPTLLTSKTLEKIRPVFDYRCMVSGSEQKFLIGLGKSQIYTWDGRQSDRWIKLDLKTELPRDTLLSVEIVHELKGEGKAQRKISAIHILDVLVLNGTDVREQHFNQRIQLAEKFVKAVSKPSRPDMNPIRVKEVYRLEEMEKIFVRLEMKIIKGSSGTPKLSYTGRDDRHFVPMGLYIVRTVNEPWTMGFSKSFKKKFFYNKKTKDSTFDLPADSIAPFHICYYGRLFWEWGDGIRVHDSQKPQDQDKLSKEDVLSFIQMHRA [KIAA0082] | – | 93% |
| MKRSSVSSGGAGRLSMQELRSQDVNKQGLYTPQTKEKPTFGKLSINKPTSERKVSLFGKRTSGHGSRNSQLGIFSSSEKIKDPRPLNDKAFIQQCIRQLCEFLTENGYAHNVSMKSLQAPSVKDFLKIFTFLYGFLCPSYELPDTKFEEEVPRIFKDLGYPFALSKSSMYTVGAPHTWPHIVAALVWLIDCIKIHTAMKESSPLFDDGQPWGEETEDGIMHNKLFLDYTIKCYESFMSGADSFDEMNAELQSKLKDLFNVDAFKLESLEAKNRALNEQIARLEQEREKEPNRLESLRKLKASLQGDVQKYQAYMSNLESHSAILDQKLNGLNEEIARVELECETIKQENTRLQNIIDNQKYSVADIERINHERNELQQTINKLTKDLEAEQQKLWNEELKYARGKEAIETQLAEYHKLARKLKLIPKGAENSKGYDFEIKFNPEAGANCLVKYRAQVYVPLKELLNETEEEINKALNKKMGLEDTLEQLNAMITESKRSVRTLKEEVQKLDDLYQQKIKEAEEEDEKCASELESLEKHKHLLESTVNQGLSEAMNELDAVQREYQLVVQTTTEERRKVGNNLQRLLEMVATHVGSVEKHLEEQIAKVDREYEECMSEDLSENIKEIRDKYEKKATLIKSSEE [NDC80] | 98% | 91.2% |
| MKTFTWTLGVLFFLLVDTGHCRGGQFKIKKINQRRYPRATDGKEEAKKCAYTFLVPEQRITGPICVNTKGQDASTIKDMITRMDLENLKDVLSRQKREIDVLQLVVDVDGNIVNEVKLLRKESRNMNSRVTQLYMQLLHEIIRKRDNSLELSQLENKILNVTTEMLKMATRYRELEVKYASLTDLVNNQSVMITLLEEQCLRIFSRQDTHVSPPLVQVVPQHIPNSQQYTPGLLGGNEIQRDPGYPRDLMPPPDLATSPTKSPFKIPPVTFINEGPFKDCQQAKEAGHSVSGIYMIKPENSNGPMQLWCENSLDPGGWTVIQKRTDGSVNFFRNWENYKKGFGNIDGEYWLGLENIYMLSNQDNYKLLIELEDWSDKKVYAEYSSFRLEPESEFYRLRLGTYQGNAGDSMMWHNGKQFTTLDRDKDMYAGNCAHFHKGGWWYNACAHSNLNGVWYRGGHYRSKHQDGIFWAEYRGGSYSLRAVQMMIKPID [ANGPTL1] | 96.4% | 85.7% |
| MKVLLRLICFIALLISSLEADKCKEREEKIILVSSANEIDVRPCPLNPNEHKGTITWYKDDSKTPVSTEQASRIHQHKEKLWFVPAKVEDSGHYYCVVRNSSYCLRIKISAKFVENEPNLCYNAQAIFKQKLPVAGDGGLVCPYMEFFKNENNELPKLQWYKDCKPLLLDNIHFSGVKDRLIVMNVAEKHRGNYTCHASYTYLGKQYPITRVIEFITLEENKPTRPVIVSPANETMEVDLGSQIQLICNVTGQLSDIAYWKWNGSVIDEDDPVLGEDYYSVENPANKRRSTLITVLNISEIESRFYKHPFTCFAKNTHGIDAAYIQLIYPVTNFQKHMIGICVTLTVIIVCSVFIYKIFKIDIVLWYRDSCYDFLPIKASDGKTYDAYILYPKTVGEGSTSDCDIFVFKVLPEVLEKQCGYKLFIYGRDDYVGEDIVEVINENVKKSRRLIIILVRETSGFSWLGGSSEEQIAMYNALVQDGIKVVLLELEKIQDYEKMPESIKFIKQKHGAIRWSGDFTQGPQSAKTRFWKNVRYHMPVQRRSPSSKHQLLSPATKEKLQREAHVPLG [IL1R] | 98.4% | 97.3% |
| MKVTSLDGRQLRKMLRKEAAARCVVLDCRPYLAFAASNVRGSLNVNLNSVVLRRARGGAVSARYVLPDEAARARLLQEGGGGVAAVVVLDQGSRHWQKLREESAARVVLTSLLACLPAGPRVYFLKGGYETFYSEYPECCVDVKPISQEKIESERALISQCGKPVVNVSYRPAYDQGGPVEILPFLYLGSAYHASKCEFLANLHITALLNVSRRTSEACATHLHYKWIPVEDSHTADISSHFQEAIDFIDCVREKGGKVLVHCEAGISRSPTICMAYLMKTKQFRLKEAFDYIKQRRSMVSPNFGFMGQLLQYESEILPSTPNPQPPSCQGEAAGSSLIGHLQTLSPDMQGAYCTFPASVLAPVPTHSTVSELSRSPVATATSC [DUSP5] | 97.5% | 91.2% |
| MKVWLLLGLLLVHEALEDVTGQHLPKNKRPKEPGENRIKPTNKKVKPKIPKMKDRDSANSAPKTQSIMMQVLDKGRFQKPAATLSLLAGQTVELRCKGSRIGWSYPAYLDTFKDSRLSVKQNERYGQLTLVNSTSADTGEFSCWVQLCSGYICRKDEAKTGSTYIFFTEKGELFVPSPSYFDVVYLNPDRQAVVPCRVTVLSAKVTLHREFPAKEIPANGTDIVYDMKRGFVYLQPHSEHQGVVYCRAEAGGRSQISVKYQLLYVAVPSGPPSTTILASSNKVKSGDDISVLCTVLGEPDVEVEFTWIFPGQKDERPVTIQDTWRLIHRGLGHTTRISQSVITVEDFETIDAGYYICTAQNLQGQTTVATTVEFS [PDGFRL] | 98% | 95.4% |
| MLLLTRSPTAWHRLSQLKPRVLPGTLGGQALHLRSWLLSRQGPAETGGQGQPQGPGLRTRLLITGLFGAGLGGAWLALRAEKERLQQQKRTEALRQAAVGQGDFHLLDHRGRARCKADFRGQWVLMYFGFTHCPDICPDELEKLVQVVRQLEAEPGLPPVQPVFITVDPERDDVEAMARYVQDFHPRLLGLTGSTKQVAQASHSYRVYYNAGPKDEDQDYIVDHSIAIYLLNPDGLFTDYYGRSRSAEQISDSVRRHMAAFRSVLS [SCO2] | 97.6% | 94.2% |

Source: the supplement of paper PMC3353916
